Source: the supplement of paper PMC10849652
Some of the results follow.

Sequences of proteins named here, by UniProt entry; tags and fusion partners are left off. A change or cut given only in a name is not applied to a line headed by its entry.
UniProt Q7L775: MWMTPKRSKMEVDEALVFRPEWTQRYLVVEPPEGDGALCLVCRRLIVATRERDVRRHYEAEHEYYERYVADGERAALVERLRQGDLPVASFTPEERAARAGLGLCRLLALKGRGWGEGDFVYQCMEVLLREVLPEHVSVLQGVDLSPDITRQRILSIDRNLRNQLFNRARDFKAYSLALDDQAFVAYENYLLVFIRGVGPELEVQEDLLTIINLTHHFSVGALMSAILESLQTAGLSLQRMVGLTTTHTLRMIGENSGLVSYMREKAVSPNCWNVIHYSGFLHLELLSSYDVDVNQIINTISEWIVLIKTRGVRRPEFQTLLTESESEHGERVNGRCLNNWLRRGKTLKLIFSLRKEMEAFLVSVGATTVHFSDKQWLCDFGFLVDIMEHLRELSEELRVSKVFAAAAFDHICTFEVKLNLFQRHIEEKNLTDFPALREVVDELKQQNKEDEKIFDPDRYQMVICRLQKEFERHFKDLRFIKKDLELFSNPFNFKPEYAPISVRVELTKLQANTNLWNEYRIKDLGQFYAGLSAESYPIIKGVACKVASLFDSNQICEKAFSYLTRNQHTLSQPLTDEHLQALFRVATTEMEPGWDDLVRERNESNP
UniProt Q93063: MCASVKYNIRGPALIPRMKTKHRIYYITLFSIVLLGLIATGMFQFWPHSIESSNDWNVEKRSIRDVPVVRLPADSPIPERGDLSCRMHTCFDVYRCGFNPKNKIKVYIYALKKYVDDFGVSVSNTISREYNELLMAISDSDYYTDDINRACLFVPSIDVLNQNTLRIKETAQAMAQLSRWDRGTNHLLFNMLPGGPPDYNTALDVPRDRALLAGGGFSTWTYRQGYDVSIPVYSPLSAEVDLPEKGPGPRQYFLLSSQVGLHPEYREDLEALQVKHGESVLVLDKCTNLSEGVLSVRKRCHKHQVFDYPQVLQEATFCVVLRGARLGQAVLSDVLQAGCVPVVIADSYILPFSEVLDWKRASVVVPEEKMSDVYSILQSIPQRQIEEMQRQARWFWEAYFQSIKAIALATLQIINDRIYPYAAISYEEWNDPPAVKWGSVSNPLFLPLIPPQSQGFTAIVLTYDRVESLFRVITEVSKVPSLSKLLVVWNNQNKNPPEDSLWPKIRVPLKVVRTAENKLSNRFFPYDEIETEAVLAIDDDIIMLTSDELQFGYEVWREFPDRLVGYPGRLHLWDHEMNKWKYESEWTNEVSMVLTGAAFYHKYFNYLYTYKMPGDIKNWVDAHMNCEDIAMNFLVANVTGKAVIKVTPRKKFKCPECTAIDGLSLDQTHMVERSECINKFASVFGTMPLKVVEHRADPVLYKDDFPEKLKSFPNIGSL
UniProt Q9NV70: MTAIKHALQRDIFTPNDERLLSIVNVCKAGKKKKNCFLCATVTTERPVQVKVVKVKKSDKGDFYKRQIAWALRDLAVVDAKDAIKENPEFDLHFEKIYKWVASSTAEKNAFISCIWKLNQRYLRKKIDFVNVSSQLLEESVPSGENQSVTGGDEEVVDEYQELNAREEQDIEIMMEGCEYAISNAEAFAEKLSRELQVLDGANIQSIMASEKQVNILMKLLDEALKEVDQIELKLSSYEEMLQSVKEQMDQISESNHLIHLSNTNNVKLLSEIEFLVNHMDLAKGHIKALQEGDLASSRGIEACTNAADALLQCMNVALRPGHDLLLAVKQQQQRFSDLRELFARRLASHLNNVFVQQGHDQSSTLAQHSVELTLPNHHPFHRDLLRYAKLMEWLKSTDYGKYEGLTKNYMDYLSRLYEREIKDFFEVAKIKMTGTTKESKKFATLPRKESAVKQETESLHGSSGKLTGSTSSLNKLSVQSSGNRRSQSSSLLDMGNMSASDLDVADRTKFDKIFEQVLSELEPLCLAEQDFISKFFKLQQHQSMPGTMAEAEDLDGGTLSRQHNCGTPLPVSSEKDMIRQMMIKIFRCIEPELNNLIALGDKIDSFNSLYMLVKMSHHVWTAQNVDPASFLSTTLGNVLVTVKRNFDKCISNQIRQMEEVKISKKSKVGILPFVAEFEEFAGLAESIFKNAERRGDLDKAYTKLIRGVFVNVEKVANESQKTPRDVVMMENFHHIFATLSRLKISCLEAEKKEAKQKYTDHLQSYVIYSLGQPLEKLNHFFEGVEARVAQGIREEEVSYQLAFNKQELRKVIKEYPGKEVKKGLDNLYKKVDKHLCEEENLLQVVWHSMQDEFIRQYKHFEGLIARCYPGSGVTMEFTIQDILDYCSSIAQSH
UniProt Q9NQT4, whole entry, looked up: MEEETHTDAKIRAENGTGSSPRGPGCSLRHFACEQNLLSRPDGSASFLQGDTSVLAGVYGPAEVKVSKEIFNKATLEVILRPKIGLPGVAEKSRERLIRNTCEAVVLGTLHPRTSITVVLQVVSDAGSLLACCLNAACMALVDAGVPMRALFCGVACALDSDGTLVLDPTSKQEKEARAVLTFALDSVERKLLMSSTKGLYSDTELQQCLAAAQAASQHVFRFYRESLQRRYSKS
UniProt Q96GK7: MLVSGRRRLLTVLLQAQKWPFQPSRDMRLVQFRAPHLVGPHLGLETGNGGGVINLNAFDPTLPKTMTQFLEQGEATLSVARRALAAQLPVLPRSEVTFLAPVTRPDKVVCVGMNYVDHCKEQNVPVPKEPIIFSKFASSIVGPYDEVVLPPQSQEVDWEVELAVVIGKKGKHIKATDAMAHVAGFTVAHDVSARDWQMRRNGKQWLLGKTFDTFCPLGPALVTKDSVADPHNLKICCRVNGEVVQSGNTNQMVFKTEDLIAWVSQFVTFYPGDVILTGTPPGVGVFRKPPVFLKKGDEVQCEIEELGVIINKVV
UniProt Q96HE7: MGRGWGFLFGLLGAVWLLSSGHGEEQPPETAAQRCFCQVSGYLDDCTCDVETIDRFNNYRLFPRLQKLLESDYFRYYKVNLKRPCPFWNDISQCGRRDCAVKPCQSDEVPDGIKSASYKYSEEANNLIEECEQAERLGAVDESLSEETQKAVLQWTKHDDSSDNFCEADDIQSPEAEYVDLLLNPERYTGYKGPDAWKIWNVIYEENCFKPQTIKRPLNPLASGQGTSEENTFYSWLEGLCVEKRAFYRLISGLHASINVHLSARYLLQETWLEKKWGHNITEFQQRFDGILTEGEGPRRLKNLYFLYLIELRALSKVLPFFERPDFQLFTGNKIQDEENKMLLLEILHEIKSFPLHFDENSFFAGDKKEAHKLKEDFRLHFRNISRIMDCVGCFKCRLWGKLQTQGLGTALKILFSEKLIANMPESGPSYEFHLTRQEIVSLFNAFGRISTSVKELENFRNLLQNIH
UniProt Q13216, whole entry, looked up: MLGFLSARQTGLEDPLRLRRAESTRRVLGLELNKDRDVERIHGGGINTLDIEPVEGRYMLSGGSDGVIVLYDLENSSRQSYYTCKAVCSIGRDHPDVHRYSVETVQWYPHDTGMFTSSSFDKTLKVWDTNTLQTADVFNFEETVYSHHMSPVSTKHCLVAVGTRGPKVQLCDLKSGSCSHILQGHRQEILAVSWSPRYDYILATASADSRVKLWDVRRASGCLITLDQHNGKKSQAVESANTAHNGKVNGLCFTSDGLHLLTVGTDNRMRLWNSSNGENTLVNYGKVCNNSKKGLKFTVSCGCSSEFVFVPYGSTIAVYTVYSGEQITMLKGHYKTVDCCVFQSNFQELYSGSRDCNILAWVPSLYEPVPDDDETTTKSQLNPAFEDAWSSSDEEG
UniProt Q9Y6I3: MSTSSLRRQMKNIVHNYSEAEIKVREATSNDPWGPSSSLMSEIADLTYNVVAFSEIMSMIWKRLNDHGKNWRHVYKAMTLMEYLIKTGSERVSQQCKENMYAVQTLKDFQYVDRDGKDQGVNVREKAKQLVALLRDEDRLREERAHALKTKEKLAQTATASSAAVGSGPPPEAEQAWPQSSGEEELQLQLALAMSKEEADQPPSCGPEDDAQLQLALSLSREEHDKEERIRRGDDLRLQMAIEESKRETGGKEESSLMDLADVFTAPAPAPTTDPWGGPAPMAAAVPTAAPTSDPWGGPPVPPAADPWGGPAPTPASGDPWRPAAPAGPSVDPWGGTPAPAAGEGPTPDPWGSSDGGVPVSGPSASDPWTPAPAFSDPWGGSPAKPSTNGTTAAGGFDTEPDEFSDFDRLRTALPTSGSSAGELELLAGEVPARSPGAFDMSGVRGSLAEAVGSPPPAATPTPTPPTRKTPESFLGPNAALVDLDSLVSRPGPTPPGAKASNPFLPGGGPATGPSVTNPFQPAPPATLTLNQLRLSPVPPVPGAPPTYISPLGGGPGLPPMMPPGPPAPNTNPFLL
UniProt Q9UPT5: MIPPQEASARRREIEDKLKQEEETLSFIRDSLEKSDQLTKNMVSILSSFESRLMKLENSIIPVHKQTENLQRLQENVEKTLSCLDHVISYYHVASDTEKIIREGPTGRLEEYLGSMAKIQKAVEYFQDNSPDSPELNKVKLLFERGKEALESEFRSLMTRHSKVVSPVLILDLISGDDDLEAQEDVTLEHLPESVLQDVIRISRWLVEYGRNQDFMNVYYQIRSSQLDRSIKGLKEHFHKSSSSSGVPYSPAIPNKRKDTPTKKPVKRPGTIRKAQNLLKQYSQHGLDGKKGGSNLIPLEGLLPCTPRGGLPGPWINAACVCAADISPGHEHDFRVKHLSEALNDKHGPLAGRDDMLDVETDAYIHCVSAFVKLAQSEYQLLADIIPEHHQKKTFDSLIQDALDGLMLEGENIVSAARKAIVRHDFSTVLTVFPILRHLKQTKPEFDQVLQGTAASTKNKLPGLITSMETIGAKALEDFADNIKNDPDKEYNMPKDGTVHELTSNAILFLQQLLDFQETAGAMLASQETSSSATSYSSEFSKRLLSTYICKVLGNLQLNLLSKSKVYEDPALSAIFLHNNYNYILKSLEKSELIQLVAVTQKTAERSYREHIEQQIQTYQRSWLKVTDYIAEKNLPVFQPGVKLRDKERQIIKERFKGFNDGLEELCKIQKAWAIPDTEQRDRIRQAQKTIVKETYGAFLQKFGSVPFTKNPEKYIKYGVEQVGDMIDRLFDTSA
UniProt Q9UKR5: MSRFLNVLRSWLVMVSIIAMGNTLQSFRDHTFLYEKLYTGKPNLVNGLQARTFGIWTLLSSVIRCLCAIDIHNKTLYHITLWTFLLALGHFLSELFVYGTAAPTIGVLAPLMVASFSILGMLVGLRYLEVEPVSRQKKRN
UniProt Q96PL5: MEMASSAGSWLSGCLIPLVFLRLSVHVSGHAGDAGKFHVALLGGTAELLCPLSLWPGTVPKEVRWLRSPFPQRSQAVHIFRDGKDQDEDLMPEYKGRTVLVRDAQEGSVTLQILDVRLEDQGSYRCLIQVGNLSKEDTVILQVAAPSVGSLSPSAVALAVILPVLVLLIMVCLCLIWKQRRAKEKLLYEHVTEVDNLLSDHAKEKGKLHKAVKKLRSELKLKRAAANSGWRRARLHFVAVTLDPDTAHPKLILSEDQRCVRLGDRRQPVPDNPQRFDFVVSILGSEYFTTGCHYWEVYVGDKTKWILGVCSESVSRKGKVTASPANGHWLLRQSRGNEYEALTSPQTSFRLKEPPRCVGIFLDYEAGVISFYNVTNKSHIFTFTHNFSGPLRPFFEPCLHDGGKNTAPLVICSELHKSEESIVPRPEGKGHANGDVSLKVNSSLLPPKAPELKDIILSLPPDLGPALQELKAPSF
UniProt P38117: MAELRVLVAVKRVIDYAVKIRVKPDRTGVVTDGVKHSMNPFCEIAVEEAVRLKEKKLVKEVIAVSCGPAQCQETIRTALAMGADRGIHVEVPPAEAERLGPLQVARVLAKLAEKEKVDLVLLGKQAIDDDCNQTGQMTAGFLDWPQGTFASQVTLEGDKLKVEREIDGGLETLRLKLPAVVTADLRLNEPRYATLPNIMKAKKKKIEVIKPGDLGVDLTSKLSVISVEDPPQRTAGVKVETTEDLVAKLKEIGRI
UniProt O75616: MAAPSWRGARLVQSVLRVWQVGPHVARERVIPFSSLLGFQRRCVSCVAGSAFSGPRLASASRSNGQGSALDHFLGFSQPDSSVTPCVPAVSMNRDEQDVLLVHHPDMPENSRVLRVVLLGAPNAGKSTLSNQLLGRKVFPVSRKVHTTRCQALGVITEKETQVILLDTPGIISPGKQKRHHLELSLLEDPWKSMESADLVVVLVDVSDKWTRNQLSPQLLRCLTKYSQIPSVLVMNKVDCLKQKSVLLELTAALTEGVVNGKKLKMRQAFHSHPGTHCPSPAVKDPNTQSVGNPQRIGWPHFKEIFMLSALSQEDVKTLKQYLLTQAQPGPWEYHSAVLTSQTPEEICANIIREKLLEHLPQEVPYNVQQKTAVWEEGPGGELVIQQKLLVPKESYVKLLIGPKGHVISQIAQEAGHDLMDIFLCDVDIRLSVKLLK
UniProt Q9GZU8: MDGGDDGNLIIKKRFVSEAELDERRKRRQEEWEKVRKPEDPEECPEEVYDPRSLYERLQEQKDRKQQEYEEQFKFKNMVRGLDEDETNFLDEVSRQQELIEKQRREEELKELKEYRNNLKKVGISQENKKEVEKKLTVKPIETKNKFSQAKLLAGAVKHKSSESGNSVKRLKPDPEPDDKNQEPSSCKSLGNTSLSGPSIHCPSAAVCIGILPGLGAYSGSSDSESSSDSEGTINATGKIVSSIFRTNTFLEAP

Legend:
Test in all cases: log2 fold change, soluble protein after heating vs DMSO (PISA); higher = thermal stabilisation; K562 cells, 10 uM, 30 min; active = over 0.2 and 3.5 SD of the protein, either way, in both replicates (recomputed)
[1] = compound: COC1=CC=C(C=C1)CN2C=CC3=C2C=C(C=C3)C(=O)NO
In short: (§1)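 K562 cells at 2×10^6 cells/mL were given 10 μM compound for 30 min. Aliquots then went through 3 min of heating across 48°C-58°C, were pooled, and were extracted in PBS with 0.5% NP-40 at 4°C, and the supernatant after 21,000xg for 90 min was quantified by TMTpro 16plex LC-MS/MS with channel sums equalised. Thermal stability relative to control samples, from duplicates, is given as log2 fold change.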

filanesib = compound: CON(C)C(=O)N1N=C(c2cc(F)ccc2F)S[C@@]1(CCCN)c1ccccc1 [filanesib]
In short: as §1

zotarolimus = compound: CO[C@H]1C[C@@H]2CC[C@@H](C)[C@@](O)(O2)C(=O)C(=O)N2CCCC[C@H]2C(=O)O[C@H]([C@H](C)C[C@@H]2CC[C@H](n3cnnn3)[C@H](OC)C2)CC(=O)[C@H](C)/C=C(\C)[C@@H](O)[C@@H](OC)C(=O)[C@H](C)C[C@H](C)/C=C/C=C/C=C/1C [zotarolimus]
In short: as §1

idasanutlin = compound: COc1cc(C(=O)O)ccc1NC(=O)[C@@H]1N[C@@H](CC(C)(C)C)[C@](C#N)(c2ccc(Cl)cc2F)[C@H]1c1cccc(Cl)c1F [idasanutlin]
In short: as §1

alisertib = compound: COc1cc(Nc2ncc3c(n2)-c2ccc(Cl)cc2C(c2c(F)cccc2OC)=NC3)ccc1C(=O)O [alisertib]
In short: as §1

[2] = compound: COc1cc2nc(-c3cc(F)ccc3O)nc(N[C@@H]3CNC[C@H]3C(C)(C)O)c2cc1OC
In short: as §1

gefitinib = compound: COc1cc2ncnc(Nc3ccc(F)c(Cl)c3)c2cc1OCCCN1CCOCC1 [gefitinib]
In short: as §1

[3] = compound: COc1cccc2cc(-c3nc([C@H]4CC[C@H](C(=O)O)CC4)n4ncnc(N)c34)[nH]c12
In short: as §1

lapatinib = compound: CS(=O)(=O)CCNCc1ccc(-c2ccc3ncnc(Nc4ccc(OCc5cccc(F)c5)c(Cl)c4)c3c2)o1 [lapatinib]
In short: as §1

pictilisib = compound: CS(=O)(=O)N1CCN(Cc2cc3nc(-c4cccc5[nH]ncc45)nc(N4CCOCC4)c3s2)CC1 [pictilisib]
In short: as §1

Measured: log2 fold change

FAM174A (UniProt Q8TBP5)
inactive: [1] -0.004

FADS1 (UniProt F5GYH4)
inactive: [1] -0.373

ETFA (UniProt P13804)
inactive: [1] -0.019 | filanesib -0.091 | zotarolimus 0.016 | idasanutlin -0.069 | alisertib -0.045 | [2] -0.008 | gefitinib 0 | [3] 0.05 | lapatinib -0.005 | pictilisib 0.087

ETNK1 (UniProt Q9HBU6)
inactive: [1] -0.083 | filanesib -0.172 | zotarolimus 0.016 | idasanutlin -0.105 | alisertib -0.045 | [2] 0.013 | gefitinib -0.02 | [3] 0.01 | lapatinib 0.078 | pictilisib -0.044

EPM2AIP1 (UniProt Q7L775)
inactive: [1] -0.026 | filanesib 0.004 | zotarolimus 0.003 | idasanutlin -0.048 | alisertib -0.132 | [2] 0.046 | gefitinib 0.014 | [3] 0.026 | lapatinib -0.033 | pictilisib 0.053

EXT2 isoform 3 (UniProt Q93063)
inactive: [1] -0.028 | filanesib 0.048 | zotarolimus 0.058 | idasanutlin 0.111 | alisertib -0.101 | [2] -0.014 | gefitinib 0.014 | [3] 0.007 | lapatinib 0.087 | pictilisib -0.023

FADD (UniProt Q13158)
inactive: [1] -0.041 | filanesib -0.018 | zotarolimus 0.018 | idasanutlin 0.042 | alisertib -0.246 | [2] 0.044 | gefitinib -0.021 | [3] -0.031 | lapatinib 0.065

ERO1B (UniProt Q86YB8)
inactive: [1] -0.105 | filanesib 0.043 | zotarolimus -0.004 | idasanutlin 0.109 | alisertib -0.014 | [2] -0.058 | gefitinib 0.056 | [3] 0.024 | lapatinib 0.186

EXOC1 (UniProt Q9NV70)
inactive: [1] -0.056 | filanesib 0.01 | zotarolimus 0.038 | idasanutlin -0.084 | alisertib 0.015 | [2] 0.131 | gefitinib -0.045 | [3] -0.129 | lapatinib -0.011 | pictilisib -0.021

EXOSC5 (UniProt Q9NQT4)
inactive: [1] 0.023 | filanesib -0.019 | zotarolimus 0.013 | idasanutlin 0 | alisertib -0.036 | [2] -0.001 | gefitinib 0.006 | [3] 0.009 | lapatinib -0.041 | pictilisib 0.018

FAM118B (UniProt Q9BPY3)
inactive: [1] 0.028 | filanesib -0.196 | zotarolimus 0.011 | idasanutlin -0.034 | alisertib -0.049 | [2] 0.017 | gefitinib 0.031 | [3] 0.129 | lapatinib 0.018 | pictilisib 0.099

ERP44 (UniProt Q9BS26)
inactive: [1] -0.032 | filanesib -0.004 | zotarolimus 0.037 | idasanutlin 0.025 | alisertib -0.057 | [2] -0.01 | gefitinib 0.02 | [3] 0.01 | lapatinib -0.008 | pictilisib 0.011

FAHD2A (UniProt Q96GK7)
inactive: [1] 0.008 | filanesib -0.022 | zotarolimus 0.018 | idasanutlin -0.021 | alisertib -0.058 | [2] 0.058 | gefitinib 0.038 | [3] 0.04 | lapatinib -0.031 | pictilisib 0.063

ERO1A (UniProt Q96HE7)
inactive: [1] -0.044 | filanesib 0.019 | zotarolimus -0.001 | idasanutlin 0.007 | alisertib -0.021 | [2] -0.024 | gefitinib -0.002 | [3] -0.005 | lapatinib 0.031 | pictilisib 0.005

ETHE1 (UniProt O95571)
inactive: [1] 0.018 | filanesib 0.008 | zotarolimus -0.02 | idasanutlin -0.035 | alisertib 0.034 | [2] 0.059 | gefitinib 0.025 | [3] 0.033 | lapatinib -0.016 | pictilisib -0.106

EPHA6 (UniProt Q9UF33)
inactive: [1] -0.597 | filanesib 0.396 | zotarolimus -0.292 | idasanutlin 0.206 | alisertib 0.077 | [2] 0.325 | gefitinib 0.1 | [3] 0.29 | lapatinib -0.846

ERCC8 (UniProt Q13216)
inactive: [1] -0.02 | filanesib -0.101 | zotarolimus -0.186 | idasanutlin 0.144 | alisertib 0.01 | [2] -0.09 | gefitinib 0.073 | [3] 0.109 | lapatinib 0.046 | pictilisib 0.078

ERBIN isoform 8 (UniProt Q96RT1)
inactive: [1] 0.045 | filanesib -0.02 | zotarolimus -0.001 | idasanutlin -0.034 | alisertib -0.057 | [2] 0.157 | gefitinib 0.038 | [3] 0.056 | lapatinib -0.033 | pictilisib -0.061

EXOSC7 (UniProt Q15024)
inactive: [1] -0.037 | filanesib 0.002 | zotarolimus -0.022 | idasanutlin -0.023 | alisertib -0.05 | [2] -0.008 | gefitinib 0.017 | [3] 0.033 | lapatinib -0.046 | pictilisib 0.014

EPN1 (UniProt Q9Y6I3)
inactive: [1] -0.051 | filanesib -0.073 | zotarolimus 0.02 | idasanutlin 0.091 | alisertib -0.059 | [2] 0 | gefitinib 0.018 | [3] 0.007 | lapatinib -0.001 | pictilisib -0.031

ERI3 (UniProt O43414)
inactive: [1] -0.009 | filanesib -0.046 | zotarolimus -0.013 | idasanutlin -0.043 | alisertib 0.032 | [2] 0.004 | gefitinib 0.007 | [3] 0.055 | lapatinib -0.031 | pictilisib 0.039

EPS15L1 (UniProt M0QY01)
inactive: [1] -0.129 | filanesib -0.023

ERP29 (UniProt P30040)
inactive: [1] 0.016 | filanesib -0.017 | zotarolimus 0 | idasanutlin 0.088 | alisertib -0.069 | [2] -0.032 | gefitinib 0.01 | [3] -0.007 | lapatinib -0.007 | pictilisib 0.002

EXOC7 (UniProt Q9UPT5)
inactive: [1] 0.023 | filanesib 0.032 | zotarolimus 0.01 | idasanutlin -0.076 | alisertib -0.024 | [2] 0.149 | gefitinib -0.054 | [3] -0.053 | lapatinib -0.031 | pictilisib -0.057

ERCC3 (UniProt P19447)
inactive: [1] -0.426 | filanesib 0.094 | zotarolimus 0.1 | idasanutlin 0.029 | alisertib 0.254 | [2] 0.166 | gefitinib 0.125 | [3] -0.14 | lapatinib 0.07 | pictilisib -0.15

ERG28 (UniProt Q9UKR5)
inactive: [1] -0.12 | filanesib -0.004 | zotarolimus 0.142 | idasanutlin 0.036 | alisertib -0.229 | [2] -0.01 | gefitinib 0.097 | [3] -0.005 | lapatinib 0.024

Reprinted at random: two entries already listed, in no set order.
EPS15L1 (UniProt M0QY01)
inactive: [1] -0.129 | filanesib -0.023

FADS1 (UniProt F5GYH4)
inactive: [1] -0.373

(next part)

ERMAP (UniProt Q96PL5)
inactive: [1] -0.039 | filanesib 0.138 | zotarolimus -0.068 | idasanutlin 0.026 | alisertib 0.045 | [2] 0.083 | gefitinib 0.035 | [3] 0.015 | lapatinib -0.008 | pictilisib 0.091

ETFB (UniProt P38117)
inactive: [1] -0.029 | filanesib -0.065 | zotarolimus 0.008 | idasanutlin 0.006 | alisertib -0.068 | [2] 0.022 | gefitinib 0.011 | [3] 0.023 | lapatinib -0.036 | pictilisib 0.037

ERAL1 (UniProt O75616)
inactive: [1] 0.093 | filanesib 0.049 | zotarolimus 0.16 | idasanutlin 0.179 | alisertib -0.076 | [2] -0.212 | gefitinib 0.166 | [3] 0.135 | lapatinib 0.093

FAM192A (UniProt Q9GZU8)
inactive: [1] -0.051 | filanesib -0.013 | zotarolimus -0.038 | idasanutlin -0.009 | alisertib -0.029 | [2] 0.005 | gefitinib 0.022 | [3] 0.06 | lapatinib 0.032 | pictilisib 0.078
